Assay results taken from ChEMBL document CHEMBL3526101, “Discovery and characterization of novel, potent, and selective cytochrome P450 2J2 inhibitors” (Drug Metab Dispos, 2013).

Target: T1, Cytochrome P450 2J2 (Homo sapiens, UniProt P51589)
T1 sequence (P51589 whole entry): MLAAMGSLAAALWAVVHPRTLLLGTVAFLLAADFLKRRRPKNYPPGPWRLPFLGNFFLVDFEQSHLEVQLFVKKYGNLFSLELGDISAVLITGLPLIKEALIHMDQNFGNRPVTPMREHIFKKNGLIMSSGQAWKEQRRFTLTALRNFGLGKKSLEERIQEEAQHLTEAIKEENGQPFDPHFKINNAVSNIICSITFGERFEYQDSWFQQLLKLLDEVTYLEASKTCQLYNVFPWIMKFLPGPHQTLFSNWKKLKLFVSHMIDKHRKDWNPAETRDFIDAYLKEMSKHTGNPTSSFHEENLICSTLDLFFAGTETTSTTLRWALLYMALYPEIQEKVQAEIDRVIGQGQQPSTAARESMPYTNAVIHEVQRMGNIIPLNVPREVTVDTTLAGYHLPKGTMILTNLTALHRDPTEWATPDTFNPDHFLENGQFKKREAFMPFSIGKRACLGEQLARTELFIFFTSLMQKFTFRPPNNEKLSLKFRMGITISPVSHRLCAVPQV

Question: With `C=CCN1CC[C@]23c4c5ccc(O)c4O[C@H]2C(=O)CC[C@@]3(O)[C@H]1C5` [NALOXONE] as the compound, how does the IC50 read?
Answer: > 50 µM
